According to article PMC7596884:
Results are given in words; binding and its absence hold for the method and conditions named. In cells and extracts the contact can be indirect. Some entries that bind do so weakly or less than the wild type.

Chains of the proteins cited; added tags and fusions are not shown.
UniProt P10275: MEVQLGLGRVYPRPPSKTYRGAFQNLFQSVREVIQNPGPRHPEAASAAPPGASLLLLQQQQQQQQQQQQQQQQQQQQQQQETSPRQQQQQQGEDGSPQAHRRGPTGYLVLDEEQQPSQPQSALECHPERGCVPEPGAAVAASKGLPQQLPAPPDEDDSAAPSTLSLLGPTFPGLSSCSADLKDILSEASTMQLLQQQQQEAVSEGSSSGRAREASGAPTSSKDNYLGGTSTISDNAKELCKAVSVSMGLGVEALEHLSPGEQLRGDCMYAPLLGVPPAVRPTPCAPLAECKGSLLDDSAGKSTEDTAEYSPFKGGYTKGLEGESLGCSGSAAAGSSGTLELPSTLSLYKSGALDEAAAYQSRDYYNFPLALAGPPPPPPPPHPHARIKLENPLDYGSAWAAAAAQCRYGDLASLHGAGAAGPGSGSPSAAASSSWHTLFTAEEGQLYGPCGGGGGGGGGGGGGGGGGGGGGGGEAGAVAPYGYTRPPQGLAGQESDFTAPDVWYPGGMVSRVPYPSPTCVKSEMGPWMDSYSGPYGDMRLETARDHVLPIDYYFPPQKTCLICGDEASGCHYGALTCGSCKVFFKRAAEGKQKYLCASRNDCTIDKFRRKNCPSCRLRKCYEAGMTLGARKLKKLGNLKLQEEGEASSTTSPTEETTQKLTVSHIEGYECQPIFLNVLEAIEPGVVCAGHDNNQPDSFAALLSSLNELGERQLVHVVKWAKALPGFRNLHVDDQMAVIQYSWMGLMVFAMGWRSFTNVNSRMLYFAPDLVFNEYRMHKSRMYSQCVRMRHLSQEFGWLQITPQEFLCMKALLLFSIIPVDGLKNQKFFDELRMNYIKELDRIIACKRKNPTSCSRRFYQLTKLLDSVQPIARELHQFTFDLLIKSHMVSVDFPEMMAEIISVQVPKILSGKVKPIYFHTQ
UniProt P13010: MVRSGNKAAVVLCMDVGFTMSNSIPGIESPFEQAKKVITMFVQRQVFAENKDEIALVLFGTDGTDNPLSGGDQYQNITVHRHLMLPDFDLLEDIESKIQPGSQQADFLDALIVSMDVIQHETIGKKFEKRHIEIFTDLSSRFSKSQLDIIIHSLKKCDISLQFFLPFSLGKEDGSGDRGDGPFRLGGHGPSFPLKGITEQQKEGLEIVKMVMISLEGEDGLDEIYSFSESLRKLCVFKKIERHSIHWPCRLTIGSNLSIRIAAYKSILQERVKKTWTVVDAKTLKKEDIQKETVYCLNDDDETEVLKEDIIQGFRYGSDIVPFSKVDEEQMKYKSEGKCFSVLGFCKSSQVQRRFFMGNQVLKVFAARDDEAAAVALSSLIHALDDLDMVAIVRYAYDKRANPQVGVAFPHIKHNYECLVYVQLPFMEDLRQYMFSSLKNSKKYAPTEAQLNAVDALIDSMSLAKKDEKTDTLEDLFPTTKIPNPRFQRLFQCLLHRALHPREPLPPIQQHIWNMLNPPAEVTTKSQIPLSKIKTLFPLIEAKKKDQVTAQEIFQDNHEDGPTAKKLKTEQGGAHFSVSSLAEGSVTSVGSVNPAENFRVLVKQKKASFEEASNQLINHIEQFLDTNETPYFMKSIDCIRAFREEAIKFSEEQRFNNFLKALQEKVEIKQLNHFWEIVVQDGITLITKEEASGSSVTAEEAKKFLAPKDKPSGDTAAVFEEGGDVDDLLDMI
UniProt P12956: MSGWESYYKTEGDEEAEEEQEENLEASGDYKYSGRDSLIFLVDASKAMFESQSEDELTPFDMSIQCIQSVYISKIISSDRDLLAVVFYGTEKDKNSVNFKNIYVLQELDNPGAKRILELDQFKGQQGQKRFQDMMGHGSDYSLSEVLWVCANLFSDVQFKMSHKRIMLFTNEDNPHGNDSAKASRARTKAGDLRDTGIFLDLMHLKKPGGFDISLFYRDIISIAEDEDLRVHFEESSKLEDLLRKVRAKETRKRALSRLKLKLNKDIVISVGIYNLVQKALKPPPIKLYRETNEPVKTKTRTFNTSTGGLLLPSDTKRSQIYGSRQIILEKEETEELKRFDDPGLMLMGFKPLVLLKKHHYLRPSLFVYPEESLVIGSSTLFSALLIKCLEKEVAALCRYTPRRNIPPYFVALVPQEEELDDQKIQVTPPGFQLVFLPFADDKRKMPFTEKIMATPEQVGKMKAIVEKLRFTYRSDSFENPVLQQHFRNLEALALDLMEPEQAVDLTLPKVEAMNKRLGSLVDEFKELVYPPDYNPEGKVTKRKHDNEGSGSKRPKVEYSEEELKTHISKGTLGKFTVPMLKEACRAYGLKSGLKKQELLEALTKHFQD

What was measured:
[1] = biological target: androgen receptor (human (endogenous in WM1366, SKMEL28, SKMEL5)) (UniProt P10275); assay: proximity ligation; Duolink kit on fixed, permeabilised melanoma cells with pairs of primary antibodies; puncta per cell counted; cells with or without shRNA-mediated AR gene silencing
[2] = biological target: androgen receptor (human (endogenous in WM1366, SKMEL28, SKMEL5)) (UniProt P10275); assay: condition: only cells treated with AZD3514 (10 µM for 48 h); proximity ligation; Duolink PLA of AR and Ku70 in WM1366, SKMEL28 and SKMEL5 cells treated with the AR inhibitor AZD3514 (10 µM for 48 h)
[3] = biological target: androgen receptor (human (endogenous in WM1366, SKMEL28, SKMEL5)) (UniProt P10275); assay: co-IP; WM1366 lysate (mild sonication, extensive DNase I digestion), 500 µg lysate with 4 µg anti-AR (5153S) or anti-RNA pol II (ab26721) in co-IP buffer (50 mM Tris-HCl pH 7.4, 150 mM NaCl, 1 mM EDTA, 1% NP-40, 1% Na-deoxycholate, 0.05% SDS) 8 h at 4°C, Protein A magnetic beads; rabbit IgG as mock; immunoblot

Row | binding [1] | binding [2] | binding [3] | Substance
1 | binds |  |  | Ku80 (from UniProt P13010 1-732)
2 | binds | no binding | binds | Ku70 (from UniProt P12956 1-609)
